Experimental data: PubChem BioAssay AID1259308 (NCATS, 2017)

- Test: 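Candidate targets for better recombinant protein yield in mammalian cells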 (primary screen)
- Cells: human HEK293 embryonic kidney cells stably expressing firefly luciferase (HEK-CMV-Luc2-Hygro)
- Reagent: single siRNA against human genes, 0.8 pmol siRNA per well
- Duration: 72 h
- Read-out: 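Reporter luminescence and viable-cell signal on separate replicate plates, given as percent of non-targeting control and median/MAD z-scores, plus per-cell luciferase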
- Direction: total luciferase, z-score and total luciferase, % of control: higher = more reporter protein produced; luciferase per cell, z-score: higher = more reporter output per viable cell; viable cells, % of control: higher = more viable cells
- Hit rule: 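An siRNA counts as active if its total luciferase robust z-score exceeds 3; genes with two or more such siRNAs out of three were retested with fresh siRNAs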
- Calls: active = raised luciferase; inactive = no rise
The deposit covers about 59,000 reagents; this is a part drawn at random. Of all reagents, about 1,510 (2.6%) were called active. 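Calls use total luciferase alone and ignore viability, so some active siRNAs may act by altering cell number.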 Reagents against one gene are numbered here. Reagent sequences are not shown.

Target gene	reagent	total luciferase, z-score	total luciferase, % of control	luciferase per cell, z-score	viable cells, % of control	activity call
WBP1 (GeneID 23559)	1	0.0482	82.8	-0.202	97.6	inactive
WBP1 (GeneID 23559)	2	-1.07	60.5	0.0283	67.2	inactive
WBP1 (GeneID 23559)	3	-1.32	55.6	-1.45	91	inactive
TM4SF5 (GeneID 9032)	1	-0.742	67.1	-0.727	90.8	inactive
TM4SF5 (GeneID 9032)	2	0.486	91.6	0.547	88.6	inactive
TM4SF5 (GeneID 9032)	3	2.39	129	1.74	91.4	inactive
TP53BP2 (GeneID 7159)	1	2.51	132	1.7	94	inactive
TP53BP2 (GeneID 7159)	2	1.86	119	1.72	84.4	inactive
TP53BP2 (GeneID 7159)	3	0.772	97.2	0.0833	106	inactive
MRPL36 (GeneID 64979)	1	2.03	122	2.29	74.7	inactive
MRPL36 (GeneID 64979)	2	-0.138	79.1	-0.382	97.8	inactive
MRPL36 (GeneID 64979)	3	0.738	96.6	1.12	80.3	inactive
ABHD4 (GeneID 63874)	1	0.988	102	0.981	87.6	inactive
ABHD4 (GeneID 63874)	2	-0.334	75.2	-0.512	96.2	inactive
ABHD4 (GeneID 63874)	3	0.11	84.1	-0.0598	95.4	inactive
PITHD1 (GeneID 57095)	1	1.21	106	1.23	85.5	inactive
PITHD1 (GeneID 57095)	2	0.47	91.2	1.5	68.7	inactive
PITHD1 (GeneID 57095)	3	-1.05	61.1	-1.02	89.2	inactive
C16orf86 (GeneID 388284)	1	1.39	109	0.835	98.2	inactive
C16orf86 (GeneID 388284)	2	0.92	100	0.487	98.5	inactive
C16orf86 (GeneID 388284)	3	1.1	104	1.24	83.6	inactive
CWC22 (GeneID 57703)	1	1.81	118	4.59	39.3	inactive
CWC22 (GeneID 57703)	2	2.55	133	2.04	86.5	inactive
CWC22 (GeneID 57703)	3	0.603	93.9	-0.374	116	inactive
MINDY2 (GeneID 54629)	1	-2.4	34.2	-2.95	83	inactive
MINDY2 (GeneID 54629)	2	-1.35	55.1	-0.634	72.7	inactive
MINDY2 (GeneID 54629)	3	0.234	86.5	0.233	91	inactive
NHP2 (GeneID 55651)	1	0.933	100	1.64	73	inactive
NHP2 (GeneID 55651)	2	6.07	203	4.18	75.3	active
NHP2 (GeneID 55651)	3	0.47	91.2	1.03	77.7	inactive
ELK1 (GeneID 2002)	1	-1.12	59.7	-0.887	84.3	inactive
ELK1 (GeneID 2002)	2	0.542	92.7	0.634	87.6	inactive
ELK1 (GeneID 2002)	3	-2.53	31.6	-3.38	85.9	inactive
SOCS6 (GeneID 9306)	1	0.314	88.1	-0.256	105	inactive
SOCS6 (GeneID 9306)	2	-0.457	72.8	-0.0596	82.6	inactive
SOCS6 (GeneID 9306)	3	0.118	84.2	-0.399	105	inactive
CROT (GeneID 54677)	1	-1.31	55.8	-2.31	115	inactive
CROT (GeneID 54677)	2	0.157	85	-0.497	108	inactive
CROT (GeneID 54677)	3	-0.263	76.7	-0.303	92.8	inactive

Reagents listed above called active (1):
Target gene	reagent	total luciferase, z-score	total luciferase, % of control	luciferase per cell, z-score	viable cells, % of control	activity call
NHP2 (GeneID 55651)	2	6.07	203	4.18	75.3	active
